According to PubChem BioAssay AID2685 (National Center for Advancing Translational Sciences (NCATS), 2010):
The list shows a part of the results. The main result of the screen is listed elsewhere. These columns were measured beside it and carry no call. Most of these compounds were active or inconclusive in the main read-out, so they are no random draw. The note in brackets gives the kind of curve behind each potency; many fits are weak.

Experiment: qHTS Assay for Lipid Storage Modulators in Drosophila S3 Cells;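 as to cell number change: cells counted by Cell Tracker Red CMTPX staining in the red channel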
Conditions: BODIPY lipid droplet fluorescence, 18-24 h; for cell number change: measured here: cell count max response, cells fed with added oleic acid
How it was run: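 Laser-scanning cytometry quantifies lipid droplet accumulation (500–530 nm total intensity; droplet/cell object ratio) in oleic acid-fed (400 uM added) Drosophila S3 cells treated with a concentration series. 20 uM Triacsin C defined 100% inhibition.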

[1] = measured here: cell number channel AC50, cells fed with added oleic acid
[2] = measured here: lipid fluorescence (Fed channel) AC50, cells fed with added oleic acid

Compound | cell number change | AC50 [1] | AC50 [2]
C=CCN(c1ccccc1)S(=O)(=O)c1cccc(C(=O)NCC(c2cccs2)N2CCOCC2)c1 (stereo not given) | -13.8% |  | 
CCc1noc(C)c1C(=O)NNC(=O)COc1ccccc1C | 36.1% | 3260 nM [rising, full curve] | 2310 nM [rising, full curve]
COc1ccc(C2(CNC(=O)/C=C/c3ccco3)CCCC2)cc1OC | -16.4% |  | 25900 nM [falling, single point]
COc1cccc(CNC(=O)c2cccc(S(=O)(=O)N3CCN(C)CC3)c2)c1 | 14.1% |  | 5620 nM [rising, single point]
COc1c2occc2c(OC)c2c(=O)cc(C(F)(F)F)oc12 |  | 1300 nM [rising, full curve] | 580 nM [rising, single point]
Cc1cccc(-n2cnc(C(=O)NNC(=S)Nc3ccccc3)c2)n1 | -2.73% | 731 nM [rising, single point] | 
Cc1nc(CSc2nnc(C)s2)cs1 | 0.987% |  | 1460 nM [falling, full curve, poor fit]
CC(C)[C@H](NC(=O)Nc1cccc(C(F)(F)F)c1)C(=O)O | 0.651% |  | 820 nM [falling, full curve, poor fit]
CCN(CC)C(=O)c1ccc(NS(=O)(=O)c2ccc3[nH]c(=O)[nH]c3c2)cc1 | 0.54% |  | 29100 nM [falling, single point]
O=C(CSc1nnc(CNC(=O)c2c(F)cccc2F)o1)NCc1ccccc1Cl | -74.3% | 11200 nM [falling, partial curve] | 3550 nM [falling, partial curve]
O=C(Nc1ccc(S(=O)(=O)Nc2ncccn2)cc1)C1CC(=O)N(c2ccc(Cl)cc2)C1 (stereo not given) | -23.1% |  | 116 nM [rising, single point]
COc1cccc(-n2c(SCC(=O)Nc3cc(C)on3)nc3ccccc3c2=O)c1 | -4.07% |  | 
O=S(=O)(c1ccccc1)N1CCN(c2ccccc2)CC1 | -9.34% |  | 
CCSc1nnc2nc(C)cc(C)n12 | -27.5% |  | 16400 nM [falling, partial curve]
O=C(O)c1ccc(Cl)c(S(=O)(=O)NC(Cc2ccccc2)C(=O)O)c1 (stereo not given) | -19.2% |  | 6510 nM [falling, single point]
CC(C)c1nnc(NC(=O)CCCCCN2C(=O)C3C4C=CC(C4)C3C2=O)s1 (stereo not given) | 1.62% |  | 2060 nM [falling, partial curve]
Cc1ccc(N2C(=O)C3C4C=CC(C4)C3C2=O)cc1 (stereo not given) | -4.46% |  | 130 nM [falling, full curve, poor fit]
CCN1C(=O)/C(=C2\SC(=S)N(CCCOC)C2=O)c2ccccc21 | 21.5% |  | 29100 nM [rising, partial curve, poor fit]
CCc1nnc(NC(=O)c2ccc3c(c2)C(=O)N(C(C)(C)C)C3=O)s1 | -0.424% |  | 
CC1=C(C(=O)Nc2ccccc2)C(c2ccc(C(C)C)cc2)N2C(=O)CSC2=N1 (stereo not given) | -27.5% |  | 6510 nM [rising, single point]
CCC(=O)Nc1nn(CC(C)C)c2nc3ccc(C)cc3cc12 | 22.4% |  | 

Compound | cell number change | AC50 [1] | AC50 [2]
O=C(CN1CCCCCC1)N/N=C/c1ccc(Cl)c(Cl)c1 | -13.9% |  | 
Cc1c(Cl)cccc1NC(=O)NC1CCCCC1 | 16.9% | 231 nM [falling, full curve, poor fit] | 4110 nM [rising, full curve]
CCOc1ccccc1C(=O)N(Cc1sccc1C)C1CCS(=O)(=O)C1 (stereo not given) | -46.9% | 12600 nM [falling, partial curve] | 20000 nM [falling, partial curve]
Cc1c(C(=O)NCc2ccco2)oc2c(Cl)cccc12 | -15.2% |  | 580 nM [rising, single point]
CCCn1c(NCc2cccc(OC)c2OC)nc2ccccc21 | 10.5% | 2060 nM [rising, single point] | 
COc1cc(S(=O)(=O)N(C)C2CCCCC2)c(C)cc1C |  |  | 366 nM [falling, full curve]
O=C(CNCc1ccco1)Nc1cc(S(=O)(=O)N2CCOCC2)ccc1N1CCCC1 | 21% |  | 517 nM [rising, full curve, poor fit]
O=C1CCCC2=C1C(Cc1ccccc1)C1=C(CCCC1=O)O2 | -73.6% | 10300 nM [falling, partial curve] | 4110 nM [falling, full curve, poor fit]
O=C(Nn1cnnc1)c1ccccc1CCc1ccccc1 | 7.56% |  | 3260 nM [rising, single point]
O=C(COC(=O)/C=C/c1ccc(Cl)cc1)NC1CCCCCC1 | 25% |  | 5.17 nM [falling, full curve, poor fit]
Nc1nc(SCC(=O)NC2CCCC2)[nH]c(=O)c1-c1ccccc1 | -71.3% | 16400 nM [falling, single point] | 
COc1ccc(/C=C/C(=O)O)cc1S(=O)(=O)N1CCCc2ccccc21 | -2.88% |  | 130 nM [falling, full curve]
COc1cc(OC)c2c(-c3ccccc3)cc(=O)oc2c1C(CC(=O)N1CCN(c2ccccc2)CC1)c1ccc2c(c1)OCO2 (stereo not given) | 16.9% |  | 580 nM [rising, full curve, poor fit]
Cc1cc(OCc2nc(-c3cccs3)no2)cc(C)c1Cl | 44.1% | 2310 nM [rising, full curve] | 2590 nM [rising, full curve]
C/C(=N\n1cnnc1)c1ccc(C#N)cc1 | -34.9% | 920 nM [falling, full curve] | 1030 nM [falling, full curve]
CCCCn1c(N)c(N(CCC(C)C)C(=O)C2CC(=O)N(c3ccc(OC)cc3OC)C2)c(=O)[nH]c1=O (stereo not given) | -9.5% |  | 
O=C(Nc1ccccc1Cl)c1ccc([N+](=O)[O-])o1 | -29.1% |  | 
O=C(N/N=C/c1ccc(Br)o1)c1cccnc1 | 37.7% | 29100 nM [rising, single point] | 11600 nM [rising, partial curve, poor fit]
CCCn1cc(NC(=O)C2CC(c3cccc(Br)c3)=NO2)cn1 (stereo not given) | -0.877% |  | 29100 nM [falling, single point]
CCOC(=O)C1CCN(C/C=C/c2ccccc2)CC1 | 3.04% |  | 
O=c1c(-c2ccccc2)cnc2n1CCS2 | -10.8% |  | 

Compound | cell number change | AC50 [1] | AC50 [2]
Cc1ccc(S(=O)CCNC(=O)Cc2ccccc2)cc1 (stereo not given) | -14.9% | 820 nM [falling, full curve, poor fit] | 326 nM [falling, full curve, poor fit]
COc1cccc(NC(=S)N2CCN(Cc3ccccc3)CC2)c1 | 7.46% |  | 2060 nM [rising, partial curve, poor fit]
COc1ccc(-c2cc(C(F)(F)F)c3c(n2)sc2c(O)cc(=O)[nH]c23)c(OC)c1 |  |  | 651 nM [rising, single point]
Cc1cccc(C)c1NC(=O)CC1SC2=NCCN2C1=O (stereo not given) | -14.8% | 65.1 nM [falling, full curve, poor fit] | 
CCn1ncc(C2=NOC(C(=O)NCC(C)C)C2)c1C (stereo not given) | -55% | 29100 nM [falling, single point] | 
O=C(Oc1cccnc1)c1ccco1 | -31.5% | 231 nM [falling, full curve] | 
Cc1csc(CNC(=O)CC2C(=O)NCCN2Cc2ccc(F)cc2Cl)n1 (stereo not given) | 4.24% |  | 
COc1ccc2c(c1)[C@@H]1[C@H](CO2)[C@H](c2ccccc2)[C@]2(C)C(=O)Nc3ccc(C)cc3C(=O)N12 |  |  | 3260 nM [falling, single point]
CCCC(=O)Nc1nnc(SCC(=O)N2C(C)CCCC2C)s1 (stereo not given) | 12.4% |  | 6510 nM [falling, single point]
Nc1ccc(C(=O)N2N=C(c3ccc(F)cc3)CC2(O)C(F)(F)F)cc1 (stereo not given) | 4.26% | 51.7 nM [rising, full curve, poor fit] | 29100 nM [rising, single point]
COC1=C(Nc2ccc(OC)cc2)C(=O)c2ccccc2C1=O | -78.8% | 29100 nM [falling, single point] | 23100 nM [falling, single point]
COc1ccc(CC(=O)N2CC3(C)CC2CC(C)(C)C3)cc1OC (stereo not given) | 13.6% |  | 5.8 nM [rising, full curve, poor fit]
O=C(Nc1cccc(O)c1)c1ccc(S(=O)(=O)N2CCCCCC2)cc1 | -52.8% | 36600 nM [falling, partial curve, poor fit] | 6510 nM [falling, partial curve, poor fit]
O=C(O)CCc1ccc(-c2cccs2)n1CCC(=O)O | -7.53% |  | 58 nM [rising, full curve, poor fit]
Cc1ccccc1OCC(=O)NCCC(=O)O | 5.01% |  | 58 nM [falling, full curve, poor fit]
O=C(NCCC1=CCCCC1)C1CCN(S(=O)(=O)c2cccc3nonc23)CC1 | 11.7% |  | 25900 nM [rising, single point]
Cc1ccc(NC(=O)COC(=O)C2CSC3(C)CCC(=O)N23)c(C)c1 (stereo not given) | -0.55% |  | 4.61 nM [falling, full curve, poor fit]
COc1ccc([C@H]2CC(=O)C=C(c3cccc(OC(F)(F)F)c3)C2)cc1 | -30.3% | 29100 nM [falling, partial curve] | 
COc1ccccc1N1CCN(C(=O)C2CCC(Cn3c(=S)[nH]c4ccccc4c3=O)CC2)CC1 (stereo not given) | 9.94% |  | 29100 nM [rising, single point]

Looked up above.
Value of Nc1nc(SCC(=O)NC2CCCC2)[nH]c(=O)c1-c1ccccc1 under AC50 [1]: 16400 nM [falling, single point]
Value of CCc1noc(C)c1C(=O)NNC(=O)COc1ccccc1C under cell number change: 36.1%
Value of C=CCN(c1ccccc1)S(=O)(=O)c1cccc(C(=O)NCC(c2cccs2)N2CCOCC2)c1 (stereo not given) under cell number change: -13.8%
Value of COc1ccc(C2(CNC(=O)/C=C/c3ccco3)CCCC2)cc1OC under AC50 [2]: 25900 nM [falling, single point]
Value of O=C(NCCC1=CCCCC1)C1CCN(S(=O)(=O)c2cccc3nonc23)CC1 under AC50 [2]: 25900 nM [rising, single point]
